# Data: paper PMC6378236
# The chains behind the UniProt entries cited, without tags or fusion partners. Residues count along the entry.
# UniProt P13128, residues 25-529: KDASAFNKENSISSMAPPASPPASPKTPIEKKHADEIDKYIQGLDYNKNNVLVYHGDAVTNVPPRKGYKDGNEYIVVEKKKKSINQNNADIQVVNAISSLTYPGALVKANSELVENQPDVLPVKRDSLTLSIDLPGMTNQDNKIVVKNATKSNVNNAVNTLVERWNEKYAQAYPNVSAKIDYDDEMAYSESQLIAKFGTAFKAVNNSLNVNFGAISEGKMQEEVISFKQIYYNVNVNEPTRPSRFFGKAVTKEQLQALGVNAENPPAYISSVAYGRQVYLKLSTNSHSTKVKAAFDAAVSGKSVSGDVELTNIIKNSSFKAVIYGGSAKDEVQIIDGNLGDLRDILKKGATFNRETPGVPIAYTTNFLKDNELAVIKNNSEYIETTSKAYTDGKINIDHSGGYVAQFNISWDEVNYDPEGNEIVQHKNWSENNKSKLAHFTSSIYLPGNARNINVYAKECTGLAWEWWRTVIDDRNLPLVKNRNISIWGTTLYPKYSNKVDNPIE
# No constants are given. Whether binding was seen depends on the method and setting. Some entries that bind do so weakly or less than the wild type.
# Molecular target: Listeriolysin O (LLO), recombinant (Listeria monocytogenes) (UniProt P13128)
# Assay: SDS-PAGE and Western blot of oligomers and monomers; recombinant LLO incubated at 37°C for 30 minutes in acidic buffer with high concentrations of chloride, with or without baicalein; oligomers and monomers detected by Western blot, optical density by ImageJ; both purified
substance,measurement,value
"Listeriolysin O (LLO), recombinant (from UniProt P13128 25-529)",binding,binds
